Measurements published in publication PMC9512495.
Results are given in words; binding and its absence hold for the method and conditions named. In cells and extracts the contact can be indirect. Some entries that bind do so weakly or less than the wild type.

Protein sequences, listed by entry. Tags and fused reporters are not part of them.
UniProt P46013: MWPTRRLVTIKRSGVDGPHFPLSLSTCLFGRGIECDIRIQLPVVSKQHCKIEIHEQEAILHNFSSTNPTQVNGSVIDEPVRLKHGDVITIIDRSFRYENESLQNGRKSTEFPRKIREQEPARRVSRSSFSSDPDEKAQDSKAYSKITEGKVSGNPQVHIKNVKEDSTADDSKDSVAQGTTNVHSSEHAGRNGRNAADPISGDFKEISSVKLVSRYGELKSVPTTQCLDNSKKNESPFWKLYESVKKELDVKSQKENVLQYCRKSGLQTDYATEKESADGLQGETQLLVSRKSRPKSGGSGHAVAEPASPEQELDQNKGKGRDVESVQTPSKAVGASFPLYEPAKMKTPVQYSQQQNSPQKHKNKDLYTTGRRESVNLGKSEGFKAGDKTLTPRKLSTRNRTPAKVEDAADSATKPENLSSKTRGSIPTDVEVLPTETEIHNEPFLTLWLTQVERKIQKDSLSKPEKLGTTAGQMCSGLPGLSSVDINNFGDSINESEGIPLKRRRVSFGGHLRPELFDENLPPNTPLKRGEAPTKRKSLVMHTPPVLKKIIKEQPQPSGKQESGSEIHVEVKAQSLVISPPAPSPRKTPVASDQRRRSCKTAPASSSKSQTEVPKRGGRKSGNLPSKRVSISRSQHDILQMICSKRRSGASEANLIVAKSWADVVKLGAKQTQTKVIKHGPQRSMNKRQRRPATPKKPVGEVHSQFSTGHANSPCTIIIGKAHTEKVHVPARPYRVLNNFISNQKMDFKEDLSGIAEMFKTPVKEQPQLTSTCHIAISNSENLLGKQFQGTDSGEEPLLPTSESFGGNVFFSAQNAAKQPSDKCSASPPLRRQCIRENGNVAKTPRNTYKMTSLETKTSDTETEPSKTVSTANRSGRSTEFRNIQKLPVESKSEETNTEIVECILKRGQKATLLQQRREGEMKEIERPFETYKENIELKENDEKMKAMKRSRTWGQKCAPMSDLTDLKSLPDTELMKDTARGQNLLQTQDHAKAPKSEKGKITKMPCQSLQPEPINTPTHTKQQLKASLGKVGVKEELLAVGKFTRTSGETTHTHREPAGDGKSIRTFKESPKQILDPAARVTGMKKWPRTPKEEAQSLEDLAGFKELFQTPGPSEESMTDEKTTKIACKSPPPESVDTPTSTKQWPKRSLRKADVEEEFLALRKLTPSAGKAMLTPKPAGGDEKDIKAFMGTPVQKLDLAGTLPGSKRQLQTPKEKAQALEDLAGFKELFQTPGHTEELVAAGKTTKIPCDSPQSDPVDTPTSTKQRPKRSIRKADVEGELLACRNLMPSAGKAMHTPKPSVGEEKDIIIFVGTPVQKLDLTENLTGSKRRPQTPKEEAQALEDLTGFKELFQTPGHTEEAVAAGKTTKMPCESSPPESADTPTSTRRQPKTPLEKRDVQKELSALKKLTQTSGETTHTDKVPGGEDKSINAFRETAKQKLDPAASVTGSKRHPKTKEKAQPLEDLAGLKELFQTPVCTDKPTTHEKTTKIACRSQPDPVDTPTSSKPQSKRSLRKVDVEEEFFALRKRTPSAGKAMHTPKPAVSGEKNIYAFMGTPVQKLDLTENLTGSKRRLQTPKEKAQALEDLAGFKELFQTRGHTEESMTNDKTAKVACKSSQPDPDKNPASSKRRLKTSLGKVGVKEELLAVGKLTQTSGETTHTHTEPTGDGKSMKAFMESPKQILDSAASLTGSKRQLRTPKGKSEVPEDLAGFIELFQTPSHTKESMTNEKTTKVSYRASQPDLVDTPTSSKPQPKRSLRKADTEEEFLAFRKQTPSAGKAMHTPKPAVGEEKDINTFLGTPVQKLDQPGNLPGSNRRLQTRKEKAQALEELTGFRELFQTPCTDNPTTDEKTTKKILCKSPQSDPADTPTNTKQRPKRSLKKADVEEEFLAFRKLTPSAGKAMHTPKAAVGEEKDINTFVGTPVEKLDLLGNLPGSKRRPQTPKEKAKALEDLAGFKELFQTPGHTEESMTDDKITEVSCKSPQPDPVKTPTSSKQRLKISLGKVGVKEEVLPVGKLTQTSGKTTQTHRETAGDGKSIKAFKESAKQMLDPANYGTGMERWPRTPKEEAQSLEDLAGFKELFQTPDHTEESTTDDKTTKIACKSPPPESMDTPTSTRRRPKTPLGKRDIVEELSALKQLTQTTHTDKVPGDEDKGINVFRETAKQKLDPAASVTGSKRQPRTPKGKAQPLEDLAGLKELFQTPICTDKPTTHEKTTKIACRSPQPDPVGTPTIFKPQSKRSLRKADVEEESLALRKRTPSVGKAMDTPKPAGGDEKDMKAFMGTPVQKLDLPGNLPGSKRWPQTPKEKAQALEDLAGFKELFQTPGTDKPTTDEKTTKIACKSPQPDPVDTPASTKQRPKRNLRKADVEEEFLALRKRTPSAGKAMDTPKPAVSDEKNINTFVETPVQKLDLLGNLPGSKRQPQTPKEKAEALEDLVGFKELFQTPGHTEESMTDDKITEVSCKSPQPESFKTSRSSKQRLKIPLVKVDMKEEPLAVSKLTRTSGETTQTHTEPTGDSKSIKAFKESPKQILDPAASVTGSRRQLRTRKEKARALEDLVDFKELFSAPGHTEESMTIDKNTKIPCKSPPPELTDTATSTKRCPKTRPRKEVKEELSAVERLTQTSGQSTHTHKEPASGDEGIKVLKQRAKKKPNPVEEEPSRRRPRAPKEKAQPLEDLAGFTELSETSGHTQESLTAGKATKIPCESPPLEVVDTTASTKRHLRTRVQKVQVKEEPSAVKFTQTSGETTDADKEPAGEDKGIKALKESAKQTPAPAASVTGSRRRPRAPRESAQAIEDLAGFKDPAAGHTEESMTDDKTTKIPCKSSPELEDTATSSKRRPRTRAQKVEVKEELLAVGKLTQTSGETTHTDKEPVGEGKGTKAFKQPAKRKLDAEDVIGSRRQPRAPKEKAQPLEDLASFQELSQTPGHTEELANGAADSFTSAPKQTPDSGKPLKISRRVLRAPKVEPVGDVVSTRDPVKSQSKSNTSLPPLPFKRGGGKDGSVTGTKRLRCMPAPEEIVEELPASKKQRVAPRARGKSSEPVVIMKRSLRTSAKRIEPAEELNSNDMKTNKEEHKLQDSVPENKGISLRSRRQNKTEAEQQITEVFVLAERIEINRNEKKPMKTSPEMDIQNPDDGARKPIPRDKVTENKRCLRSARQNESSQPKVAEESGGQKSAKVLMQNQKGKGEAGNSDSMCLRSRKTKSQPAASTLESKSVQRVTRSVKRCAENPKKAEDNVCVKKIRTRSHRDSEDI

T1: alanine aminotransferase 1 (human (endogenous in HepG2)) (UniProt P24298)
T1 sequence: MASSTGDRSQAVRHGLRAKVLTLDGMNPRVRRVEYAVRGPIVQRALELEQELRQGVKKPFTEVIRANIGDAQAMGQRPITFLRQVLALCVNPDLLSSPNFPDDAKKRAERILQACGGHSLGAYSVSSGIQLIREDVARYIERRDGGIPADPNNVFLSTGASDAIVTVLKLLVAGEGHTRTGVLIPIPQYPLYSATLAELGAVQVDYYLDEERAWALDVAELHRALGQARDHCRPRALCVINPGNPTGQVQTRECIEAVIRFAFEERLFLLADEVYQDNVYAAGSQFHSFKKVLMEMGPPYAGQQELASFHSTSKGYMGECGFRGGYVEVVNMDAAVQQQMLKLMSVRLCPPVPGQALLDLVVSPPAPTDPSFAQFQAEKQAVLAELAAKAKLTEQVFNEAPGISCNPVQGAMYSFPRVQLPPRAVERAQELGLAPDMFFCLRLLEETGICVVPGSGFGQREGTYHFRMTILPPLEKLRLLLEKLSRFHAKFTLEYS


What follows are molecules tested against T1, alanine aminotransferase 1 (human (endogenous in HepG2)) (assay: co-IP; HepG2 lysate, primary antibody overnight at 4 C, Protein A+G Agarose, washed 5 times with PBS; ALT1 as bait, Western blot of the precipitate; agarose-only and IgG control groups).

| binding | Molecule |
| --- | --- |
| binds | KI67 (from UniProt P46013 1-3256) |
| binds | epithelial cell adhesion molecule (protein, UniProt P16422 24-314) QEECVCENYKLAVNCFVNNNRQCQCTSVGAQNTVICSKLAAKCLVMKAEMNGSKLGRRAKPEGALQNNDGLYDPDCDESGLFKAKQCNGTSMCWCVNTAGVRRTDKDTEITCSERVRTYWIIIELKHKAREKPYDSKSLRTALQKEITTRYQLDPKFITSILYENNVITIDLVQNSSQKTQNDVDIADVAYYFEKDVKGESLFHSKKMDLTVNGEQLDLDPGQTLIYYVDEKAPEFSMQGLKAGVIAVIVVVVIAVVAGIVVLVISRKKRMAKYEKAEIKEMGEMHRELNA |
| binds | apoptosis-stimulating protein 2 of p53 (protein, UniProt Q13625 1-1128) MMPMFLTVYLSNNEQHFTEVPVTPETICRDVVDLCKEPGESDCHLAEVWCGSERPVADNERMFDVLQRFGSQRNEVRFFLRHERPPGRDIVSGPRSQDPSLKRNGVKVPGEYRRKENGVNSPRMDLTLAELQEMASRQQQQIEAQQQLLATKEQRLKFLKQQDQRQQQQVAEQEKLKRLKEIAENQEAKLKKVRALKGHVEQKRLSNGKLVEEIEQMNNLFQQKQRELVLAVSKVEELTRQLEMLKNGRIDSHHDNQSAVAELDRLYKELQLRNKLNQEQNAKLQQQRECLNKRNSEVAVMDKRVNELRDRLWKKKAALQQKENLPVSSDGNLPQQAASAPSRVAAVGPYIQSSTMPRMPSRPELLVKPALPDGSLVIQASEGPMKIQTLPNMRSGAASQTKGSKIHPVGPDWSPSNADLFPSQGSASVPQSTGNALDQVDDGEVPLREKEKKVRPFSMFDAVDQSNAPPSFGTLRKNQSSEDILRDAQVANKNVAKVPPPVPTKPKQINLPYFGQTNQPPSDIKPDGSSQQLSTVVPSMGTKPKPAGQQPRVLLSPSIPSVGQDQTLSPGSKQESPPAAAVRPFTPQPSKDTLLPPFRKPQTVAASSIYSMYTQQQAPGKNFQQAVQSALTKTHTRGPHFSSVYGKPVIAAAQNQQQHPENIYSNSQGKPGSPEPETEPVSSVQENHENERIPRPLSPTKLLPFLSNPYRNQSDADLEALRKKLSNAPRPLKKRSSITEPEGPNGPNIQKLLYQRTTIAAMETISVPSYPSKSASVTASSESPVEIQNPYLHVEPEKEVVSLVPESLSPEDVGNASTENSDMPAPSPGLDYEPEGVPDNSPNLQNNPEEPNPEAPHVLDVYLEEYPPYPPPPYPSGEPEGPGEDSVSMRPPEITGQVSLPPGKRTNLRKTGSERIAHGMRVKFNPLALLLDSSLEGEFDLVQRIIYEVDDPSLPNDEGITALHNAVCAGHTEIVKFLVQFGVNVNAADSDGWTPLHCAASCNNVQVCKFLVESGAAVFAMTYSDMQTAADKCEEMEEGYTQCSQFLYGVQEKMGIMNKGVIYALWDYEPQNDDELPMKEGDCMTIIHREDEDEIEWWWARLNDKEGYVPRNLLGLYPRIKPRQRSLA |
